# Laboratory results from PubChem BioAssay AID504467 (National Center for Advancing Translational Sciences (NCATS), 2011).
# Among all 330,000 compounds or so, about 7,700 (2.3%) were called active. The inconclusive results got no clear call from the source; some entries with a clear call stand among them for comparison. Calls follow the shape of the dose curve; as a rule, active = well fitted inhibition curve with a large enough effect; inconclusive = small, poorly fitted or top-dose-only effect, or effect the other way; inactive = flat fitted curve, though single readings scatter. Where the call is inconclusive, the potency comes from a doubtful curve fit.
# Test: qHTS screen for small molecules that inhibit ELG1-dependent DNA repair in human embryonic kidney (HEK293T) cells expressing luciferase-tagged ELG1; also: nearly all actives have a fitted effect of over 55% in size
# Details: HEK293T ELG1-luciferase reporter, luminescence, 16 h, DNA damage induced by 5-fluorouridine; series mostly up to 46.1 µM
# Method in brief: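 Overnight (16 hr) co-exposure of 2,000 cells/well to 5-fluorouridine and compound at 37 °C preceded detection. Luciferase was quantified via ONE-Glo luminescence; loss of signal denotes inhibition.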
# Potency is read from the fitted curve at half-maximal effect.
row,Structure (SMILES),Potency
1,COCc1nnc(NC(=O)c2ccc(S(=O)(=O)N(C)Cc3ccccc3)cc2)o1,"inconclusive: 20.6 µM [inhibitor, single point]"
2,CC(C)(C)c1cc(NC(=O)COc2ccc(Br)cc2)n(-c2ccccc2)n1,"inconclusive: 25.9 µM [inhibitor, single point]"
3,O=C(CN1C2CCCC1CC(NC(=O)C1CCCCC1)C2)Nc1ccccc1C(F)(F)F (stereo not drawn),active: 14.6 µM
4,CC(=O)c1ccc(-c2ccc(-c3cc(=O)oc4c(C(C)C)ccc(C)c34)cc2)cc1,"inconclusive: 14.6 µM [inhibitor, partial curve]"
5,Cc1cccc(C)c1OCC(=O)NCc1nnc(SCC(=O)NC2CCCCC2C)n1C (stereo not drawn),inactive
6,Oc1cccc(C(Nc2nccs2)c2ccc3cccnc3c2O)c1 (stereo not drawn),"inconclusive: 25.9 µM [activator, single point]"
7,N#C/C(=C(/O)COc1ccccc1)c1nnc2n1CCCCC2,inactive
8,Cc1ccc(N2CCN(C(=S)Nc3ccccc3)CC2)cc1,inactive
9,CCc1nc(Nc2ccccc2O)c2oc3ccccc3c2n1,inactive
10,CC(=O)Nc1cc(-c2ccc(F)cc2)[nH]n1,"inconclusive: 25.9 µM [activator, single point]"
11,O=C(Cc1cccs1)Nc1nc2c(s1)CCCC2,"inconclusive: 8.2 µM [activator, partial curve]"
12,CNC[C@@H]1Oc2ccc(NC(=O)Nc3c(C)noc3C)cc2CC(=O)N([C@H](C)CO)C[C@H]1C,"inconclusive: 20.6 µM [activator, single point]"
13,Cc1ccc(-c2n[nH]c(=S)n2/N=C\c2ccco2)cc1,inactive
14,C/C(=N\Nc1ccc(S(N)(=O)=O)cc1[N+](=O)[O-])c1cccnc1,inactive
15,Cn1cccc1/C=N/NC(=O)c1cccc(OC(F)(F)C(F)F)c1,"inconclusive: 18.4 µM [activator, partial curve]"
16,COCc1nnc(NC(=O)c2ccc3c(c2)OCO3)s1,"inconclusive: 7.3 µM [activator, partial curve]"
17,O=C(CCNS(=O)(=O)c1ccc(Cl)cc1)Nc1ccncc1,"inconclusive: 9.2 µM [inhibitor, partial curve]"
18,O=C(C1CCC1)N1CCN(c2ccc(C(F)(F)F)cc2[N+](=O)[O-])CC1,"inconclusive: 2.06 µM [inhibitor, partial curve, poor fit]"
19,CCc1cc(C(=O)N=Nc2c(O)[nH]c3c(Br)cc(Br)cc23)c2ccccc2n1,"inconclusive: 23.1 µM [inhibitor, partial curve, poor fit]"
20,O=C(c1ccc(Cl)cc1)N1CCc2c([nH]c3ccccc23)C1C(F)(F)F (stereo not drawn),"inconclusive: 23.1 µM [inhibitor, single point]"
21,CC1CCCC(C)N1C(=O)COC(=O)CCC(=O)c1ccc(F)cc1 (stereo not drawn),"inconclusive: 4.61 µM [activator, single point]"
22,COc1cccc(-c2nc(CS(=O)(=O)CC(=O)NC3CCCCC3C)c(C)o2)c1 (stereo not drawn),"inconclusive: 18.3 µM [inhibitor, single point]"

row,Structure (SMILES),Potency
1,COc1ccc(N2CCN(C(=S)NC(=O)c3cccs3)CC2)c([N+](=O)[O-])c1,"inconclusive: 25.9 µM [inhibitor, partial curve]"
2,COc1ccc(-c2coc3cc(O[C@@H]4O[C@H](CO)[C@@H](O)[C@H](O)[C@H]4O)c(OC)cc3c2=O)cc1,"inconclusive: 11.6 µM [activator, partial curve]"
3,COc1ccc(NC(=S)N2CCCC2)c(OC)c1,inactive
4,CCOc1cc(NC(=S)NCCOC)c(OCC)cc1NC(=O)c1cccs1,inactive
5,O=c1c([N+](=O)[O-])cccn1Cc1ccc(F)cc1Cl,"inconclusive: 29.1 µM [inhibitor, single point]"
6,CCC(=O)Oc1ccc(NC(=O)CSCc2ccccc2)cc1,"inconclusive: 20.6 µM [activator, partial curve]"
7,Cc1ccc2oc(Nc3nc(-c4ccccc4)cc(=O)[nH]3)nc2c1,"inconclusive: 6.51 µM [activator, full curve]"
8,O=C(NCc1ccc(-c2nc3ccccc3s2)cc1)c1cc2ccccc2o1,"inconclusive: 20.6 µM [activator, partial curve]"
9,Cc1nn(-c2ccccc2)c(C)c1-c1cc(C(=O)N/N=C/c2cccnc2)[nH]n1,"inconclusive: 20.6 µM [inhibitor, partial curve]"
10,COc1cccc(/C=C/c2ccc3ccccc3n2)c1OC(C)=O,"inconclusive: 0.164 µM [activator, full curve]"
11,O=C1c2ccccc2CN1CCSC(=S)N1CCSCC1,"inconclusive: 10.3 µM [activator, partial curve]"
12,O=C(COc1ccc(Oc2ccccc2)cc1)NC1CCS(=O)(=O)C1 (stereo not drawn),"inconclusive: 20.6 µM [inhibitor, single point]"
13,COc1ccccc1CNC(=O)COC(=O)c1ccc(C)c(S(=O)(=O)N2CCCCC2)c1,inactive
14,COc1ccc(CNC(=O)C2CCN(C(=O)c3ccc(-c4ccccc4)cc3)CC2)cc1,"inconclusive: 35.5 µM [inhibitor, partial curve, poor fit]"
15,CC(C)[C@]1(c2ccccc2)ON(c2ccccc2C(F)(F)F)C1=O,inactive
16,O=C(NCCc1ccccc1)Nc1cccc(Cl)c1,"inconclusive: 10.3 µM [activator, partial curve]"
17,NNS(=O)(=O)c1ccc2c(c1)Cc1cc(S(=O)(=O)NN)ccc1-2,"inconclusive: 20.6 µM [activator, single point]"
18,COc1ccc(S(=O)(=O)Nc2cc(C)c(O)c(S(=O)(=O)c3ccccc3)c2)cc1,inactive
19,Cn1cc(/C=C2\SC(=O)N(c3ccc(O)cc3)C2=O)c2ccccc21,"inconclusive: 29.1 µM [inhibitor, single point]"
20,COc1ccc(-n2c(O)c(/C=N/Nc3nc(C)cc(C)n3)c3ccccc3c2=O)cc1OC,"inconclusive: 3.26 µM [inhibitor, single point]"
21,CCOC(=O)c1c(-c2ccc(OC)cc2)csc1NC(=O)CCN1CCOCC1,"inconclusive: 20.6 µM [inhibitor, single point]"

# A portion from further up, for reference:
row,Structure (SMILES),Potency
10,CC(=O)Nc1cc(-c2ccc(F)cc2)[nH]n1,"inconclusive: 25.9 µM [activator, single point]"
11,O=C(Cc1cccs1)Nc1nc2c(s1)CCCC2,"inconclusive: 8.2 µM [activator, partial curve]"
